This is one part of the list.
Legend:
Assay in all cases: glycan array binding signal (z-score within array); higher = stronger binding
Conditions in all cases: glycan notation: IUPAC condensed, linker removed
[1] = biological target: Neu5Ac(a2-3)Gal(b1-4)GlcNAc(b1-3)Gal(b1-4)GlcNAc(b1-2)Man(a1-3)[Neu5Ac(a2-3)Gal(b1-4)GlcNAc(b1-3)Gal(b1-4)GlcNAc(b1-2)Man(a1-6)]Man(b1-4)GlcNAc(b1-4)GlcNAc
In short: (§1)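 The Consortium for Functional Glycomics database supplied 3228 glycan arrays, of which those lacking an available protein sequence were dropped. The binding signal, a within-array Z-score, was averaged across arrays of the same protein sequence and across linkers. Negative scores can be read as non-binding.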

[2] = biological target: Neu5Ac(a2-3)Gal(b1-4)GlcNAc(b1-3)Gal(b1-4)GlcNAc(b1-3)Gal(b1-4)GlcNAc
In short: as §1

[3] = biological target: Neu5Ac(a2-3)Gal(b1-4)GlcNAc(b1-3)Gal(b1-4)GlcNAc(b1-3)Gal(b1-4)GlcNAc(b1-2)Man(a1-3)[Neu5Ac(a2-3)Gal(b1-4)GlcNAc(b1-3)Gal(b1-4)GlcNAc(b1-3)Gal(b1-4)GlcNAc(b1-2)Man(a1-6)]GalNAc
In short: as §1

[4] = biological target: Neu5Ac(a2-3)Gal(b1-4)GlcNAc(b1-3)Gal(b1-4)GlcNAc(b1-3)GalNAc
In short: as §1

[5] = biological target: Neu5Ac(a2-3)Gal(b1-4)GlcNAc(b1-3)Gal(b1-4)GlcNAc(b1-3)[Neu5Ac(a2-3)Gal(b1-4)GlcNAc(b1-3)Gal(b1-4)GlcNAc(b1-6)]GalNAc
In short: as §1

[6] = biological target: Neu5Ac(a2-3)Gal(b1-4)GlcNAc(b1-3)Gal(b1-4)GlcNAc(b1-6)[Gal(b1-3)]GalNAc
In short: as §1

[7] = biological target: Neu5Ac(a2-3)Gal(b1-4)GlcNAc(b1-3)Gal(b1-4)[Fuc(a1-3)]GlcNAc
In short: as §1

[8] = biological target: Neu5Ac(a2-3)Gal(b1-4)GlcNAc(b1-3)GalNAc
In short: as §1

[9] = biological target: Neu5Ac(a2-3)Gal(b1-4)GlcNAc(b1-3)[Neu5Ac(a2-3)Gal(b1-4)GlcNAc(b1-6)]GalNAc
In short: as §1

[10] = biological target: Neu5Ac(a2-3)Gal(b1-4)GlcNAc(b1-6)GalNAc
In short: as §1

[11] = biological target: Neu5Ac(a2-3)Gal(b1-4)GlcNAc(b1-6)[Gal(b1-3)]GalNAc
In short: as §1

[12] = biological target: Neu5Ac(a2-3)Gal(b1-4)GlcNAc(b1-6)[Neu5Ac(a2-3)Gal(b1-3)]GalNAc
In short: as §1

[13] = biological target: Neu5Ac(a2-3)Gal(b1-4)GlcNAc6S
In short: as §1

[14] = biological target: Neu5Ac(a2-3)Gal(b1-4)[Fuc(a1-3)]GlcNAc
In short: as §1

[15] = biological target: Neu5Ac(a2-3)Gal(b1-4)[Fuc(a1-3)]GlcNAc(b1-2)Man
In short: as §1

[16] = biological target: Neu5Ac(a2-3)Gal(b1-4)[Fuc(a1-3)]GlcNAc(b1-3)Gal
In short: as §1

[17] = biological target: Neu5Ac(a2-3)Gal(b1-4)[Fuc(a1-3)]GlcNAc(b1-3)Gal(b1-4)GlcNAc
In short: as §1

[18] = biological target: Neu5Ac(a2-3)Gal(b1-4)[Fuc(a1-3)]GlcNAc(b1-3)Gal(b1-4)[Fuc(a1-3)]GlcNAc(b1-3)Gal(b1-4)[Fuc(a1-3)]GlcNAc
In short: as §1

[19] = biological target: Neu5Ac(a2-3)Gal(b1-4)[Fuc(a1-3)]GlcNAc(b1-3)GalNAc
In short: as §1

[20] = biological target: Neu5Ac(a2-3)Gal(b1-4)[Fuc(a1-3)]GlcNAc(b1-6)[Gal(b1-3)]GalNAc
In short: as §1

[21] = biological target: Neu5Ac(a2-3)Gal(b1-4)[Fuc(a1-3)]GlcNAc(b1-6)[Neu5Ac(a2-3)Gal(b1-3)]GalNAc
In short: as §1

[22] = biological target: Neu5Ac(a2-3)Gal(b1-4)[Fuc(a1-3)]GlcNAc6S
In short: as §1

[23] = biological target: Neu5Ac(a2-3)Gal6S(b1-4)GlcNAc
In short: as §1

[24] = biological target: Neu5Ac(a2-3)Gal6S(b1-4)[Fuc(a1-3)]GlcNAc
In short: as §1

Neu5Ac(a2-3)GalNAc = biological target: Neu5Ac(a2-3)GalNAc
In short: as §1

[25] = biological target: Neu5Ac(a2-3)GalNAc(b1-4)GlcNAc
In short: as §1

[26] = biological target: Neu5Ac(a2-3)[GalNAc(b1-4)]Gal(b1-4)Glc
In short: as §1

[27] = biological target: Neu5Ac(a2-3)[GalNAc(b1-4)]Gal(b1-4)GlcNAc
In short: as §1

[28] = biological target: Neu5Ac(a2-3)[GalNAc(b1-4)]Gal(b1-4)GlcNAc(b1-3)GalNAc
In short: as §1

[29] = biological target: Neu5Ac(a2-3)[Neu5Ac(a2-6)]GalNAc
In short: as §1

Neu5Ac(a2-6)Gal = biological target: Neu5Ac(a2-6)Gal
In short: as §1

[30] = biological target: Neu5Ac(a2-6)Gal(b1-3)GlcNAc(b1-3)[Gal(b1-4)GlcNAc(b1-6)]Gal(b1-4)Glc
In short: as §1

Neu5Ac(a2-6)Gal(b1-4)Glc = biological target: Neu5Ac(a2-6)Gal(b1-4)Glc
In short: as §1

[31] = biological target: Neu5Ac(a2-6)Gal(b1-4)GlcNAc
In short: as §1

[32] = biological target: Neu5Ac(a2-6)Gal(b1-4)GlcNAc(b1-2)Man
In short: as §1

[33] = biological target: Neu5Ac(a2-6)Gal(b1-4)GlcNAc(b1-2)Man(a1-3)Man(b1-4)GlcNAc(b1-4)GlcNAc
In short: as §1

[34] = biological target: Neu5Ac(a2-6)Gal(b1-4)GlcNAc(b1-2)Man(a1-3)[Gal(b1-4)GlcNAc(b1-2)Man(a1-6)]Man(b1-4)GlcNAc(b1-4)GlcNAc
In short: as §1

[35] = biological target: Neu5Ac(a2-6)Gal(b1-4)GlcNAc(b1-2)Man(a1-3)[GlcNAc(b1-2)Man(a1-6)]Man(b1-4)GlcNAc(b1-4)GlcNAc
In short: as §1

B1: Epa11 (Candida glabrata) (protein)
chain: MGSSHHHHHHSSGLVPRGSHMASSNAPNYPVGCSPSVGTQLTPGLSLEVYAYPMDGNNGYCWNATYKDPEFPRSGYLKNKLLGKADGVVGPLNFLAKNKDCSPKVDTLPAGFNFPQPITVTNFTMVLFGYLAPKQSGKYTFKLLADDLLLLNLGATNAFDCCNREATKNNLGEFLAYNLWPNQDKNVTVYLEKGVYYPLRLFFNNRDGGSQLDFSYYFNDSPAPLTDFSGMFFSVPDGAECPARI
- glycan array binding signal (z-score) [1]: 0.416
- glycan array binding signal (z-score) [2]: -0.226
- glycan array binding signal (z-score) [3]: 1.3
- glycan array binding signal (z-score) [4]: 0.068
- glycan array binding signal (z-score) [5]: 0.099
- glycan array binding signal (z-score) [6]: -0.079
- glycan array binding signal (z-score) [7]: -0.296
- glycan array binding signal (z-score) [8]: 0.796
- glycan array binding signal (z-score) [9]: 0.121
- glycan array binding signal (z-score) [10]: -0.259
- glycan array binding signal (z-score) [11]: -0.044
- glycan array binding signal (z-score) [12]: -0.742
- glycan array binding signal (z-score) [13]: -0.474
- glycan array binding signal (z-score) [14]: 1.08
- glycan array binding signal (z-score) [15]: -0.418
- glycan array binding signal (z-score) [16]: 0.704
- glycan array binding signal (z-score) [17]: 0.211
- glycan array binding signal (z-score) [18]: -0.51
- glycan array binding signal (z-score) [19]: 1.7
- glycan array binding signal (z-score) [20]: 1.02
- glycan array binding signal (z-score) [21]: 0.772
- glycan array binding signal (z-score) [22]: -0.345
- glycan array binding signal (z-score) [23]: -0.645
- glycan array binding signal (z-score) [24]: -0.242
- glycan array binding signal (z-score) (Neu5Ac(a2-3)GalNAc): -0.08
- glycan array binding signal (z-score) [25]: 0.122
- glycan array binding signal (z-score) [26]: 0.153
- glycan array binding signal (z-score) [27]: 0.022
- glycan array binding signal (z-score) [28]: -0.16
- glycan array binding signal (z-score) [29]: -0.124
- glycan array binding signal (z-score) (Neu5Ac(a2-6)Gal): 0.038
- glycan array binding signal (z-score) [30]: -0.326
- glycan array binding signal (z-score) (Neu5Ac(a2-6)Gal(b1-4)Glc): -0.541
- glycan array binding signal (z-score) [31]: -0.853
- glycan array binding signal (z-score) [32]: 0.902
- glycan array binding signal (z-score) [33]: 0.243
- glycan array binding signal (z-score) [34]: -0.37
- glycan array binding signal (z-score) [35]: -0.21

— the supplement of paper PMC8728848
